This note sets out measurements from paper PMC7819943, “Rice protein-binding microarrays: a tool to detect cis-acting elements near promoter regions in rice”.

By UniProt entry, the sequences of proteins in these tests, tags left out.
UniProt Q0JBA9, entry or part of it: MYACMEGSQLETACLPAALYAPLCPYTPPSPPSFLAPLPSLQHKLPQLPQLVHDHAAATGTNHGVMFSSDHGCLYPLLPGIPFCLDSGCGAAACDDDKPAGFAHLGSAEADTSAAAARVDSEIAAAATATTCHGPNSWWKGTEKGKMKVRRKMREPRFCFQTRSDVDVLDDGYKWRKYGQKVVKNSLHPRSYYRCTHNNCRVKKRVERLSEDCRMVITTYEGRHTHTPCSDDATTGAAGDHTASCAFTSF

Some of the results follow.

The assay deals with OsWRKY34 (Oryza sativa, UniProt Q0JBA9 1-250). Nature of the assay: protein-binding microarray (RPBM); PBS, 2% BSA, 51.3 ng/ul salmon testes DNA, 50 uM zinc acetate, 200 nM TF, 25 C, 1 h; high values mean tight binding. The note with it: protein: recombinant; tags: N-terminal polyhistidine and DsRed monomer fusion (pET32a); label: CyDye5-dUTP incorporated in the synthesized complementary strand; 3' TTTTT single-stranded linker to array surface; dsDNA, one strand shown. The gist of the method: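 Using Ni–NTA, transcription factors fused N-terminally to polyhistidine and DsRed were purified after expression in E. coli BL21-CodonPlus. These were incubated at 200 nM with a blocked, double-stranded custom Agilent array for 1 h at 25 °C in a buffer containing 50 µM zinc acetate, and the array was washed. The binding signal is per-feature fluorescence intensity (arbitrary units) on an Axon 4000B scanner.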
“ATCAAGCTTTCCATTCTATTTCATTTGTACTCCACCTGTTCGGAGTCACCTAGTGCAG”: the binding signal is 11500 fluorescence intensity (a.u.).

As to “CCTCGCCAGTTCTGTTCAGCCGCAGATCTCCATCCCGCCACGGAGTCACCTAGTGCAG”, the binding signal was 8650 fluorescence intensity (a.u.).

Consider “CTAGTCCCGTCGTCCGTGACCGTGTGCCTTTGCCTTTCCGCGGAGTCACCTAGTGCAG”, for which the binding signal is 8330 fluorescence intensity (a.u.).

As to “TATATATATATATATATATATATATATATATGGTGGTGTTCGGAGTCACCTAGTGCAG”, the binding signal was 20500 fluorescence intensity (a.u.).

For “TGTAAGTGTCTACGTTTGTACCGTGTCTTTTTTCTAAAAACGGAGTCACCTAGTGCAG”, the binding signal was 10300 fluorescence intensity (a.u.).

In the case of “CCGTACCACCCCAAGATATTTCACGATATTTTCACGCATACGGAGTCACCTAGTGCAG”, the binding signal was 8570 fluorescence intensity (a.u.).

For the sequence “ATATACTGCTCCATCTCGTCGCTCGTCTCTCGCGTTAACCCGGAGTCACCTAGTGCAG”, the binding signal was 8310 fluorescence intensity (a.u.).

Take “CGTCGTGGTCAGAATAAAGTCAAATAATAGCTTTGATTTTCGGAGTCACCTAGTGCAG”: the binding signal is 9080 fluorescence intensity (a.u.).

For the sequence “CTGGTCGCGTTTGGGATCGCCTCTCAATCTCTCATGTTAGCGGAGTCACCTAGTGCAG”, the binding signal is 8620 fluorescence intensity (a.u.).

In the case of “TTTATAAGTTGAGAGATGTCATATGTCTGATTTTCCGGTTCGGAGTCACCTAGTGCAG”, the binding signal is 8570 fluorescence intensity (a.u.).

In the case of “CTAGATATCCCTTGTTTGTGTGTATGATGTATGCACTCCACGGAGTCACCTAGTGCAG”, the binding signal is 8980 fluorescence intensity (a.u.).

For “CCTATTATATCTTACTTGTTTGACCCTATTATGTCATACCCGGAGTCACCTAGTGCAG”, the binding signal is 11800 fluorescence intensity (a.u.).

For “GTGCTTATTTGATGTGGCATTTGGGCCTTGGTTTAACCGTCGGAGTCACCTAGTGCAG”, the binding signal is 8400 fluorescence intensity (a.u.).

Turning to “AGCGCTGCACAAAATTTGCTCTGTTTCCTCTGTTCTGCGACGGAGTCACCTAGTGCAG”, the binding signal was 8140 fluorescence intensity (a.u.).

“GCATTTTTAAGCGTGGCGTGATCCGTGTTCTGTTCTTCTTCGGAGTCACCTAGTGCAG”: the binding signal was 10700 fluorescence intensity (a.u.).

For the sequence “CACTAAAATTAGAGGTATCTTTTTCTTCCAGTTTAATGTACGGAGTCACCTAGTGCAG”, the binding signal was 9510 fluorescence intensity (a.u.).

Turning to “GCAATATGCTATATGTGTGGTAGATATTTTTGTTGTCTTTCGGAGTCACCTAGTGCAG”, the binding signal was 10600 fluorescence intensity (a.u.).

For the sequence “ATAGATGGCACTCGCGCCTCGCCTCTCTGCTTCCGCGCCCCGGAGTCACCTAGTGCAG”, the binding signal was 11500 fluorescence intensity (a.u.).

Consider “AACGTTAGACAAAAAGTCAACGGCGTCATACATTAAATACCGGAGTCACCTAGTGCAG”, for which the binding signal is 9060 fluorescence intensity (a.u.).

For “GAGCCACGATCGCCCTCTACTTTCTGCATTCCTCAATCTTCGGAGTCACCTAGTGCAG”, the binding signal was 11400 fluorescence intensity (a.u.).

Regarding “ATGGTTCTTTTTGCACAGCTCTAGATTCACTATGTTTTGTCGGAGTCACCTAGTGCAG”, the binding signal is 8750 fluorescence intensity (a.u.).

“AGGTGAGGTGGTCGTTTTTCTCGTTATCCAAACTAGTATTCGGAGTCACCTAGTGCAG”: the binding signal was 11500 fluorescence intensity (a.u.).

For the sequence “TATTTGTTTTTGGTCAGTTCGTGTATGATGTGATCACGACCGGAGTCACCTAGTGCAG”, the binding signal is 8570 fluorescence intensity (a.u.).

With “ACGCCATCGCGTCGCGTCATTCTTCCAATCGAGAACTCTTCGGAGTCACCTAGTGCAG”, the binding signal was 10400 fluorescence intensity (a.u.).

In the case of “CCGGGTGGAAAGCCATTATTATTGACTTGTTCCGTTCTTCCGGAGTCACCTAGTGCAG”, the binding signal is 9780 fluorescence intensity (a.u.).

For the sequence “ATTGTTCGTCGAACTTTATCATATTATTAATCATCATATACGGAGTCACCTAGTGCAG”, the binding signal is 8960 fluorescence intensity (a.u.).

For the sequence “TACATTTTTTCTCTAACATATCATCCCTATTCCCCTAAAACGGAGTCACCTAGTGCAG”, the binding signal was 8540 fluorescence intensity (a.u.).

For the sequence “GTGGAACTAAACACACCCTCACTACTTCCTCTATTATCGACGGAGTCACCTAGTGCAG”, the binding signal was 8430 fluorescence intensity (a.u.).

For the sequence “CTCTCCCATTCCGGTTCATGAACTTGCACTTATTCACTGCCGGAGTCACCTAGTGCAG”, the binding signal is 8600 fluorescence intensity (a.u.).

With “CCACAGCCACCACGATTTTATATACACATGAGCTTATCATCGGAGTCACCTAGTGCAG”, the binding signal was 8120 fluorescence intensity (a.u.).

In the case of “GCCTCTTCCGCCGCATCGCGCTCTACGGCTTCGACCCGCCCGGAGTCACCTAGTGCAG”, the binding signal was 10100 fluorescence intensity (a.u.).

With “AGCCCAACATCTCGCATCCCCTGGCCGCCGCCACGAACATCGGAGTCACCTAGTGCAG”, the binding signal was 10600 fluorescence intensity (a.u.).

Regarding “GGTGATGCTTATTTATTCTCCTGTTTTATAGGGTTTTAACCGGAGTCACCTAGTGCAG”, the binding signal was 8100 fluorescence intensity (a.u.).

For “AGGTGCTATTTCAGCATCCTATGCCATGTCATGTTGAATTCGGAGTCACCTAGTGCAG”, the binding signal was 10200 fluorescence intensity (a.u.).

Turning to “GGGATAAAATTGCCACGTAAGCGCCACCTTAACACTATGTCGGAGTCACCTAGTGCAG”, the binding signal is 8360 fluorescence intensity (a.u.).

As to “CCTCTAGTAGCAGTGGTTAGCACTTAGCTCTCGCCTAATGCGGAGTCACCTAGTGCAG”, the binding signal was 8180 fluorescence intensity (a.u.).

With “CCACCCGCCGCCGCCGTCGCCGCCCTTCGCCGCCGCCATGCGGAGTCACCTAGTGCAG”, the binding signal was 8690 fluorescence intensity (a.u.).

With “CTACATACACCCGTCCGAGTCATACGCGAGACCGCCCTCGCGGAGTCACCTAGTGCAG”, the binding signal is 8520 fluorescence intensity (a.u.).

As for “GCAAATACTAGGTGCCCCTGATCACGTTCCACGAATTCCACGGAGTCACCTAGTGCAG”, the binding signal was 8110 fluorescence intensity (a.u.).

Consider “GCGACCATAAGAGACTCCCGCTTCCGCCAACCGCCCACCACGGAGTCACCTAGTGCAG”, for which the binding signal was 9330 fluorescence intensity (a.u.).

For the sequence “CAGTTGTCTCACCTAACCAGTGGTATTCCCTGTCCCCAACCGGAGTCACCTAGTGCAG”, the binding signal is 8820 fluorescence intensity (a.u.).

“GGGTTTTGATTTTTTTTAAGATATCTTTTTTTACTTTTATCGGAGTCACCTAGTGCAG”: the binding signal is 11500 fluorescence intensity (a.u.).

For the sequence “TTTGGTAAGATTTGAACGGTTGGTTGTATAGGTCATTGACCGGAGTCACCTAGTGCAG”, the binding signal was 16900 fluorescence intensity (a.u.).

Consider “CAATAAACTTATTACTATCGCCCGGGTTTCTGCTTAGTTCCGGAGTCACCTAGTGCAG”, for which the binding signal is 9320 fluorescence intensity (a.u.).

In the case of “TATTCTCGCGATTACTGTCAGCTAATGATGGATCAATGTACGGAGTCACCTAGTGCAG”, the binding signal is 8040 fluorescence intensity (a.u.).

As for “TTTTTGGGTTGGGTTGGGGACGCGCTGTTTCGACGTGGGGCGGAGTCACCTAGTGCAG”, the binding signal is 19000 fluorescence intensity (a.u.).

For the sequence “CAGCTCTTAAGTGTTCCTGTCTAGATTGTTGGTGTTGTGGCGGAGTCACCTAGTGCAG”, the binding signal is 10100 fluorescence intensity (a.u.).

For the sequence “AGCCCACCTTAGTACTCCTATGGGCCTCTTCTTATTCCTCCGGAGTCACCTAGTGCAG”, the binding signal was 8340 fluorescence intensity (a.u.).

As to “AATTCCGGTGGTTCACCGCCGGTGAGGGTTGGAGGAGGGGCGGAGTCACCTAGTGCAG”, the binding signal was 8160 fluorescence intensity (a.u.).

In the case of “CCTATCATGTAAAACTCTTTGGGGTTTGTTGTATTGAATGCGGAGTCACCTAGTGCAG”, the binding signal was 8020 fluorescence intensity (a.u.).

In the case of “GATTAGGTGGTGTAGTATTTGCGCCCGTAGCTTGTCCGAACGGAGTCACCTAGTGCAG”, the binding signal is 9210 fluorescence intensity (a.u.).

Consider “CGTGTGACTGTTGCCGTGATGGTTTTGATGTTTGTTTTGGCGGAGTCACCTAGTGCAG”, for which the binding signal is 9180 fluorescence intensity (a.u.).

With “CTCGTTACTCTTCTCTCTCATATTTTATCTTCTCGAAATACGGAGTCACCTAGTGCAG”, the binding signal was 8030 fluorescence intensity (a.u.).

“CATCTATATCTTCACATCTCATTTAGTCCTAGCCATTCATCGGAGTCACCTAGTGCAG”: the binding signal was 11100 fluorescence intensity (a.u.).
